Laboratory results published in patent publication US10934258B2, “Materials for use in an aqueous organic redox flow battery” (Utah State University, priority 2016, dated 2021).

Key:
[1] = Post-cell CV and 1H NMR analysis of flow cell electrolytes
[2] = Solubility by preparing a super-saturated solution
Experimental: Chemicals and Materials. All chemicals were purchased from Aldrich or TCI, stored in an Argon glovebox, and used directly. Solubility of substituted ferrocene compounds was measured in water by preparing a super-saturated solution in a volumetric cylinder. Deionized water was purged overnight using N2 before use. All experimental operations were conducted under a N2 atmosphere. Conductivity of the electrolyte solutions was measured using a Mettler Toledo conductivity meter at R.T. NMR studies were conducted using a Bruker 500 MHz NMR spectrometer. UV-Vis was collected using an Ocean Optic spectrometer. Elemental analysis was done at Atlantic Microlab.
Calculation of theoretical energy density: The theoretical energy density of the FcNCl/MV AORFB was calculated using equation 3 below, where n is the number of electrons involved into the cell reaction, C is the concentration of active materials, F is Faraday constant, 26.8 Ah/mol, V is the cell voltage, and 2 represents a factor considering both volumes of anolyte and catholyte. Solubility of FcNCl and MV was measured in water respectively by preparing a super-saturated solution. Similar solubility tests in water were applied for ferrocenecarboxylic acid, 1-1′-ferrocenedicarboxilic acid, ferrocenecarboxylic acid, and 1,1′-ferrocenedimethanol. Energy density (Wh/L)=nCFV/2 (equation 3)

[3] = 0.5 M FcNCl/MV cell after 400 cycles, CV and 1H NMR
[4] = (NPr)2V/[FcN^Et]Br cell after 100 cycles, post-cell CV

SMILES | crossover through anion exchange membrane [1, 3] | crossover through anion exchange membrane [1, 4] | also measured
C[n+]1ccc(-c2cc[n+](C)cc2)cc1 [MV, methyl viologen, reference compound] | no crossover |  | 
C[N+](C)(C)CCC[n+]1ccc(-c2cc[n+](CCC[N+](C)(C)C)cc2)cc1.[Br-].[Br-].[Br-].[Br-] [(NPr)2V, 1,1′-bis[3-(trimethylamonium)propyl]-4,4′-bipyridinium, tetrabromide] |  | no electrolyte crossover | 
C[N+](C)(C)C[c-]1cccc1.[Cl-].[Fe+2].c1cc[cH-]c1 [FcNCl, (ferrocenylmethyl)trimethylammonium chloride] | no crossover |  | 
O=S(=O)([O-])CCC[n+]1ccc(-c2cc[n+](CCCS(=O)(=O)[O-])cc2)cc1 [(SPr)2V, 1,1′-bis[3-sulfonatopropyl]-4,4′-bipyridinium] |  |  | charge capacity in 1.5 M KCl ([2]; 1.7 M in 1.5 M KCl): 42.9 Ah/L; charge capacity (one-electron) ([2]; 2.0 M in H2O, one electron): 53.5 Ah/L
CC[N+](C)(C)C[c-]1cccc1.[Br-].[Fe+2].c1cc[cH-]c1 [[FcN^Et]Br, (ferrocenylmethyl)ethyldimethylammonium bromide] |  | no electrolyte crossover | 
